B1: CD137 antibody clone 003 (rabbit) (antibody, human IgG1, kappa, V domains shown)
VH: QSVEESGGRLVTPGTPLTLTCTASGFTISSYHMIWVRQAPGEGLEWIGDIYGGTATTDYASWAKGRFTISKTSTTVDLKMTSLTTEDTATYFCARARYSGGSYANYVFNLWGQGTLVTVSS
VL: DIVMTQTPASVEAAVGGTVTIKCQASQSISSYLAWYQQKPGQPPKLLIYRTSTLESGVPSRFKGSGSGTEFTLTISDLESADAATYYCQGYDWSSSNRYDNTFGGGTEVVVKR
notes: also called Clone 3; CD137 clone 003
B2: CD137 antibody clone 012 (rabbit) (antibody, human IgG1, kappa, V domains shown)
VH: QSVEESGGRLVTPGTPLTLTCTVSGFSLSDYYMTWVRQAPGKGLEYIGIMSGSGSTYYASWAKGRFTISKTSSTTLELKITSPTTEDTAIYFCARDGDYAGWGYATGAFDPWGPGTLVTVSS
VL: AAVLTQTPSPVSAAVGGTVTISCQASQSVVGNSLLSWFQKKPGQPPKLLIYSASSLASGVPSRFKGSGSGTQFTLTISDLESDDAATYYCTGRYNSDTDTFVFGGGTEVVVKR
notes: also called Clone 12; CD137 clone 012
B3: CD137 antibody clone 010 (rabbit) (antibody, human IgG1, kappa, V domains shown)
VH: QSVEESGGRLVTPGTPLTLTCTVSGFSLSTYAMIWVRQAPGKGLEWIGVVYDNGYISHATWVKGRFTISKTSTTVGLEITSPTTEDTATYFCARSADGSWSTYFNLWGQGTLVTVSS
VL: DIVMTQTPASVEAAVGGTVTIKCQASESISNYLAWYQQKPGQPPKLLIYKASTLASGVSSRFKGSGSGTEFTLTISDLESADAATYYCQTNYCCSSSDNGFAFGGGTEVVVKR
notes: also called Clone 10; CD137 clone 010
B4: CD137 antibody clone 007 (rabbit) (antibody, human IgG1, kappa, V domains shown)
VH: QSLEESGGRLVTPGTPLTLTCTASGFSLSSYDVSWVRQAPGKGLEYIGFIGSDGSAHYATWVKGRFTISKTSTTVDLKITSPTTEDTATYFCARDWNDYWAHDLWGPGTLVTVSS
VL: AQVLTQTTSPVSAAVGGTVTINCQASQIVTSKSALSWYQQKPGQPPRLLIYKASTLASGVPSRFSGSGSGTQFTLTISDLESDDAATYYCAGGYYNSGDLNPFGGGTEVVVKR
notes: also called Clone 7; CD137 clone 007
B5: CD137 antibody clone 006 (rabbit) (antibody, human IgG1, kappa, V domains shown)
VH: QSVEESGGRLVTPGTPLTLTCTVSGFSLSSYAMSWVRQAPGKGLEWIGIISTSGITYYASWAKGRFTISKTSTMVDLKITSPTTEDTATYFCARLNGFDDYVRYFDFWGLGTLVTVSS
VL: AIELTQTPSSVSAAVGGTVTINCQASESIASNLAWYQQKPGQPPKLLIYAASYLASGVPSRFKGSGSGTEYTLTISGVQSADAATYYCQSAFYVSSSDNAFGGGTEVVVKR
notes: also called Clone 6; CD137 clone 006
B6: CD137 antibody clone 002 (rabbit) (antibody, human IgG1, kappa, V domains shown)
VH: QSVEESGGRLVTPGTPLTLTCTVSGFSLTYYAVTWVRQPPGKGLEWIGVIYDNGATAFATWAKGRFTMSKNSTTVALKVTSPTTEDTATYFCARSANNAWSTYSNLWGQGTLVTVSS
VL: DIVMTQTPSSVSAAVGGTVTINCQASEDISSYLSWYQQKLGQPPKLLIYKASTLESGVPSRFKGSGSGTEYTLTISDLESDDAATYYCQSYYSGSISGYGFVFGGGTGVVVKR
notes: also called Clone 2; CD137 clone 002
B7: CD137 antibody clone 009 (rabbit) (antibody, human IgG1, kappa, V domains shown)
VH: QSLEESGGRLVTPGTPLTLTCTVSGFSLNDYWMSWVRQAPGKGLEWIGYIDVGGSLYYASWAKGRFTISRTSTTVDLKMTSLTTEDTATYFCARGGLTYGFDLWGPGTLVTVSS
VL: DIVMTQTPASVSEPVGGTVTINCQASEDISSYLAWYQQKPGQRPKRLIYGASDLASGVPSRFSASGSGTEYALTISDLESADAATYYCHYYATISGLGVAFGGGTEVVVKR
notes: also called Clone 9; CD137 clone 009
B8: CD137 antibody clone 004 (rabbit) (antibody, human IgG1, kappa, V domains shown)
VH: QSLEESGGRLVTPGTPLTLTCTASGFSLSRYDMSWVRQAPGKGLEYIGVISSSGGTNYANWAKGRFTISKTSTTVDLKITSPTTEDTATYFCAREGDYWDFNLWGPGTLVTVSS
VL: AQVLTQTPSSVSAAVGGTVTINCQASQSISNLLAWYQQKPGQPPKLLIYGASTLASGVPSRFSGSGSGTEFTLTISDLESDDAATYYCAGGFPGLDTVAAFGGGTEAVVTR
notes: also called Clone 4; CD137 clone 004
B9: CD137 antibody clone 008 (rabbit) (antibody, human IgG1, kappa, V domains shown)
VH: QSLEESGGRLVTPGTPLTLTCTASGFSLSSYDMSWVRQAPGKGLEYIGYISSSGNTYYASWAKSRFTISKTSTTVDLKITSPTTEDTATYFCAREGDYWDFNLWGPGTLVTVSS
VL: AQVLTQTPSSVSAAVGGTVTINCQASQSISNLLAWYQQKPGQRPRLLIYRASTLASGVPSRFKGSGSGTEFTLTISDLESEDAATYYCAGGFPGLDTGATFGGGTEAVVTR
notes: also called Clone 8; CD137 clone 008
B10: CD137 antibody clone 011 (rabbit) (antibody, human IgG1, kappa, V domains shown)
VH: QSLEESGGRLVTPGTPLTLTCTVSGIDLSSYHMCWVRQAPGKGLEYIGYIAYGGNTYYANWAKGRFTISKTSTTVDLRITSPTTEDTATYFCARGYSEDSYWGLWGPGTLVTVSS
VL: AYDMTQTPASVEAAVGGTVTIKCQASQNIENYLAWYQQKPGQPPKLLIYDTSKLTSGVPSRFSGSGSGTDFTLTISGVQSDDAATYYCQQDYGIIFVDNIFGGGTEVVVKR
notes: also called Clone 11; CD137 clone 011
B11: CD137 antibody clone 001 (rabbit) (antibody, human IgG1, kappa, V domains shown)
VH: QSVEESGGRLVTPGTPLTLTCTVSGFSLSSYAVSWVRQAPGKGLEWIGVIWNNGATHYATWAKGRFTISKASTTVDLKVTSPTTEDTATYFCARSANDAWSTYSDLWGQGTLVTVSS
VL: DIVMTQTPASVEAAVGGTVTIKCQASQTITNYLSWYQQKPGQPPKLLIYKASTLTSGVSSRFKGSGSGTEFTLTISDLESDDAATYYCQNYYYGSSSGYGFVFGGGTEVVVKR
notes: also called Clone 1; CD137 clone 001

Amino acid sequences for entries named in this document (tags omitted). A change or cut given only in a name is not applied to a line headed by its entry.
UniProt Q07011: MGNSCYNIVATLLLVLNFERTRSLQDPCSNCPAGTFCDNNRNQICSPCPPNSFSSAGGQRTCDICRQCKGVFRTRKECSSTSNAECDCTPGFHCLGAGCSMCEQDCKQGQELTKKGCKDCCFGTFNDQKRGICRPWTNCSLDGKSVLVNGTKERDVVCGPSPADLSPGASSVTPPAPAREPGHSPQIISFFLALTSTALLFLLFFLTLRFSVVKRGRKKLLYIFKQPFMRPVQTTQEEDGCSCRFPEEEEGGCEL

These are yes or no findings as the source states them, for the method shown. Some entries that bind do so weakly or less than the wild type.

The experiment concerns the target Human CD137 shuffle 6 (amino acids 24-47 replaced by wild boar CD137) (human, amino acids 24-47 from wild boar) (UniProt Q07011). Nature of the experiment: flow cytometry on transfected HEK293T-17 cells, 1 µg/mL antibody.
For the molecule B1, the binding entry was “binds”.
For the molecule B2, the binding entry is “binds”.
Turning to B3, the binding entry was “binds”.
The result for B4 reads “binds”.
B5: the binding entry was “binds”.
For B6, the binding entry is “binds”.
As for B7, the binding result is given as “binds”.
The result for B8 reads “binds”; that for B9, “binds”; that for B10, “binds”.
With B11, the binding result was “binds”.

The record behind these values is patent publication US20210317225A1 (Genmab, published 2021).
